Source: the supplement of paper PMC8728848
Some of the results follow.

Legend:
Experiment in all cases: glycan array binding signal (z-score within array); higher = stronger binding
Conditions in all cases: glycan notation: IUPAC condensed, linker removed
[1] = target: Gal(b1-4)GlcNAc(a1-6)Gal(b1-4)GlcNAc
Outline: (§1)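 The binding signal is a Z-score computed within each array. Data were drawn from 3228 arrays in the Consortium for Functional Glycomics database, restricted to those with a known protein sequence. Scores were averaged over arrays of the same protein sequence at different concentrations or buffers, and over linkers, and negative values can be taken as non-binding.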

[2] = target: Gal(b1-4)GlcNAc(b1-2)Man(a1-3)Man(b1-4)GlcNAc(b1-4)GlcNAc
Outline: as §1

[3] = target: Gal(b1-4)GlcNAc(b1-2)Man(a1-3)[Gal(b1-4)GlcNAc(b1-2)Man(a1-6)]Man(b1-4)GlcNAc(b1-4)GlcNAc
Outline: as §1

[4] = target: Gal(b1-4)GlcNAc(b1-2)Man(a1-3)[Gal(b1-4)GlcNAc(b1-2)Man(a1-6)]Man(b1-4)GlcNAc(b1-4)[Fuc(a1-6)]GlcNAc
Outline: as §1

[5] = target: Gal(b1-4)GlcNAc(b1-2)Man(a1-3)[GlcNAc(b1-2)Man(a1-6)]Man(b1-4)GlcNAc(b1-4)GlcNAc
Outline: as §1

[6] = target: Gal(b1-4)GlcNAc(b1-2)Man(a1-3)[Man(a1-6)]Man(b1-4)GlcNAc(b1-4)GlcNAc
Outline: as §1

[7] = target: Gal(b1-4)GlcNAc(b1-2)Man(a1-6)Man(b1-4)GlcNAc(b1-4)GlcNAc
Outline: as §1

[8] = target: Gal(b1-4)GlcNAc(b1-2)Man(a1-6)[GlcNAc(b1-2)Man(a1-3)]Man(b1-4)GlcNAc(b1-4)GlcNAc
Outline: as §1

[9] = target: Gal(b1-4)GlcNAc(b1-2)Man(a1-6)[Man(a1-3)]Man(b1-4)GlcNAc(b1-4)GlcNAc
Outline: as §1

[10] = target: Gal(b1-4)GlcNAc(b1-2)[Gal(b1-4)GlcNAc(b1-4)]Man(a1-3)[Gal(b1-4)GlcNAc(b1-2)Man(a1-6)]Man(b1-4)GlcNAc(b1-4)GlcNAc
Outline: as §1

[11] = target: Gal(b1-4)GlcNAc(b1-2)[Gal(b1-4)GlcNAc(b1-4)]Man(a1-3)[Gal(b1-4)GlcNAc(b1-2)[Gal(b1-4)GlcNAc(b1-6)]Man(a1-6)]Man(b1-4)GlcNAc(b1-4)GlcNAc
Outline: as §1

[12] = target: Gal(b1-4)GlcNAc(b1-3)Gal(b1-3)GlcNAc
Outline: as §1

[13] = target: Gal(b1-4)GlcNAc(b1-3)Gal(b1-4)Glc
Outline: as §1

[14] = target: Gal(b1-4)GlcNAc(b1-3)Gal(b1-4)GlcNAc
Outline: as §1

[15] = target: Gal(b1-4)GlcNAc(b1-3)Gal(b1-4)GlcNAc(b1-3)Gal(b1-4)GlcNAc
Outline: as §1

[16] = target: Gal(b1-4)GlcNAc(b1-3)Gal(b1-4)[Fuc(a1-3)]GlcNAc(b1-3)Gal(b1-4)[Fuc(a1-3)]GlcNAc
Outline: as §1

[17] = target: Gal(b1-4)GlcNAc(b1-3)GalNAc
Outline: as §1

[18] = target: Gal(b1-4)GlcNAc(b1-3)[Gal(b1-4)GlcNAc(b1-6)]Gal(b1-4)GlcNAc
Outline: as §1

[19] = target: Gal(b1-4)GlcNAc(b1-3)[Gal(b1-4)GlcNAc(b1-6)]GalNAc
Outline: as §1

[20] = target: Gal(b1-4)GlcNAc(b1-3)[GlcNAc(b1-6)]Gal(b1-4)GlcNAc
Outline: as §1

[21] = target: Gal(b1-4)GlcNAc(b1-6)Gal(b1-4)GlcNAc
Outline: as §1

[22] = target: Gal(b1-4)GlcNAc(b1-6)GalNAc
Outline: as §1

[23] = target: Gal(b1-4)GlcNAc(b1-6)[Gal(b1-3)]GalNAc
Outline: as §1

Gal3S(b1-3)GalNAc = target: Gal3S(b1-3)GalNAc
Outline: as §1

Gal3S(b1-3)GlcNAc = target: Gal3S(b1-3)GlcNAc
Outline: as §1

[24] = target: Gal3S(b1-3)[Fuc(a1-4)]GlcNAc
Outline: as §1

Gal3S(b1-4)Glc = target: Gal3S(b1-4)Glc
Outline: as §1

Gal3S(b1-4)Glc6S = target: Gal3S(b1-4)Glc6S
Outline: as §1

Gal3S(b1-4)GlcNAc = target: Gal3S(b1-4)GlcNAc
Outline: as §1

Gal3S(b1-4)GlcNAc6S = target: Gal3S(b1-4)GlcNAc6S
Outline: as §1

[25] = target: Gal3S(b1-4)[Fuc(a1-3)]Glc
Outline: as §1

[26] = target: Gal3S(b1-4)[Fuc(a1-3)]Glc6S
Outline: as §1

Gal3S4S(b1-4)GlcNAc = target: Gal3S4S(b1-4)GlcNAc
Outline: as §1

Gal3S6S(b1-4)GlcNAc = target: Gal3S6S(b1-4)GlcNAc
Outline: as §1

Gal3S6S(b1-4)GlcNAc6S = target: Gal3S6S(b1-4)GlcNAc6S
Outline: as §1

Gal4S(b1-4)GlcNAc = target: Gal4S(b1-4)GlcNAc
Outline: as §1

Gal4S6S(b1-4)GlcNAc = target: Gal4S6S(b1-4)GlcNAc
Outline: as §1

Gal6S(b1-4)Glc = target: Gal6S(b1-4)Glc
Outline: as §1

Gal6S(b1-4)Glc6S = target: Gal6S(b1-4)Glc6S
Outline: as §1

Gal6S(b1-4)GlcNAc = target: Gal6S(b1-4)GlcNAc
Outline: as §1

Gal6S(b1-4)GlcNAc6S = target: Gal6S(b1-4)GlcNAc6S
Outline: as §1

GalNAc(a1-3)Gal = target: GalNAc(a1-3)Gal
Outline: as §1

GalNAc(a1-3)GalNAc = target: GalNAc(a1-3)GalNAc
Outline: as §1

[27] = target: GalNAc(a1-3)GalNAc(a1-3)Gal(a1-4)Gal(b1-4)GlcNAc
Outline: as §1

GalNAc(b1-3)Gal = target: GalNAc(b1-3)Gal
Outline: as §1

[28] = target: GalNAc(b1-3)Gal(a1-4)Gal(b1-4)GlcNAc
Outline: as §1

[29] = target: GalNAc(b1-3)Gal(a1-4)Gal(b1-4)GlcNAc(b1-3)Gal(b1-4)Glc
Outline: as §1

[30] = target: GalNAc(b1-3)Gal(a1-6)Gal(b1-4)Glc
Outline: as §1

GalNAc(b1-3)GalNAc = target: GalNAc(b1-3)GalNAc
Outline: as §1

GalNAc(b1-4)GlcNAc = target: GalNAc(b1-4)GlcNAc
Outline: as §1

[31] = target: GalNAc(b1-4)GlcNAc(b1-2)Man(a1-3)[GalNAc(b1-4)GlcNAc(b1-2)Man(a1-6)]Man(b1-4)GlcNAc(b1-4)GlcNAc
Outline: as §1

Glc(a1-4)Glc = target: Glc(a1-4)Glc
Outline: as §1

Glc(a1-6)Glc(a1-6)Glc = target: Glc(a1-6)Glc(a1-6)Glc
Outline: as §1

Glc(b1-4)Glc = target: Glc(b1-4)Glc
Outline: as §1

Glc(b1-6)Glc = target: Glc(b1-6)Glc
Outline: as §1

GlcA(b1-3)Gal = target: GlcA(b1-3)Gal
Outline: as §1

GlcA(b1-3)GlcNAc = target: GlcA(b1-3)GlcNAc
Outline: as §1

GlcA(b1-6)Gal = target: GlcA(b1-6)Gal
Outline: as §1

[32] = target: GlcNAc(a1-3)Gal(b1-4)GlcNAc
Outline: as §1

[33] = target: GlcNAc(a1-4)Gal(b1-3)GlcNAc
Outline: as §1

B1: LERP (Drosophila melanogaster), B7Z0Q8 (protein)
chain: MRCSLQKDCAAPTQENFRQMRFPIVISLLLLLFCSGESVAADAANQLKFSTTECKLKEPIYGSTFDFSGLHSDLAHVVKSMNIGGDQFEFNICGNLSRTCNGESNVAACLKRQGKEYILGRQHELFYNNGNMFLKYKSGAKCDNGTADKPNYQLHVMFSCDYTLDAQPMHVTPYANEVCSFYISYRTPLACLSIPEGLQSNSCRVGDTKSNGTFDLMPLSDSNYHTSNRQGAFFVINVCKPVLYGENSMCPAGSSVCLFDSKATNPKERFINFGNVQTHPVVEKGQLLLRHESPTPCAKNSSANYTSVIYFSCDKFIRNAHPEFAGLGADSCTYQFNFATPLACNDLKPCTAFTSTNELLDLSSLSSKPARTLLKDGKNYTIAVCAHAGAPCQENGGACYEQNSTTISLGNSNSQLRFNQTGSLYLLYEDGAECSTATGMRRWSTKIEFVCANNATKDNGASTAGGSDSLKIIEDSNCQLLIQYQTPLACREPIRCKATTYVDHTNDGLGSSGDELIDLTPLISATDNYEARVELPASMEHLVPKTTKFFLNVCRPLVPKYQLGCAGGSAACMAKVTAAGAPEEERSMGFPLVSLTQRNRTFAELAYLKGDPCPTDNTSELSTHILFNCNMRAGRGQPVLRSVEDCAYRFEWETNVFCPPHECTFSADTCDLVHDELGRRFNFKSAPFTKDGKIEIDYNATKMSVNICGAHRKAMTDYSQALVNIFFTHESPNCGREGTMNVQIRLICSDQTESSSTISSDQQCNLLYVQRTPSICEFLSLGATQQNFESNGSTSSSTSSSSTSTTTSTTTQASPAGKPTKAATSTTTTTVGPDPAATPIGPTASVGTILGAILSVTFCVTCLGLLAFSPARRQRIRRLFRRSNSAVRYSRVQSNEEANLLLEPNGEFTESDDDMLL
[1]
  glycan array binding signal (z-score): -0.745
[2]
  glycan array binding signal (z-score): -0.223
[3]
  glycan array binding signal (z-score): -0.368
[4]
  glycan array binding signal (z-score): -0.281
[5]
  glycan array binding signal (z-score): -0.6
[6]
  glycan array binding signal (z-score): -1.11
[7]
  glycan array binding signal (z-score): -0.636
[8]
  glycan array binding signal (z-score): -0.013
[9]
  glycan array binding signal (z-score): -0.17
[10]
  glycan array binding signal (z-score): -0.021
[11]
  glycan array binding signal (z-score): -1.27
[12]
  glycan array binding signal (z-score): -0.627
[13]
  glycan array binding signal (z-score): -0.059
[14]
  glycan array binding signal (z-score): -0.911
[15]
  glycan array binding signal (z-score): -0.49
[16]
  glycan array binding signal (z-score): -0.219
[17]
  glycan array binding signal (z-score): 0.146
[18]
  glycan array binding signal (z-score): -0.458
[19]
  glycan array binding signal (z-score): -0.643
[20]
  glycan array binding signal (z-score): 1.36
[21]
  glycan array binding signal (z-score): -0.46
[22]
  glycan array binding signal (z-score): 1.55
[23]
  glycan array binding signal (z-score): 0.02
Gal3S(b1-3)GalNAc
  glycan array binding signal (z-score): -0.198
Gal3S(b1-3)GlcNAc
  glycan array binding signal (z-score): -0.556
[24]
  glycan array binding signal (z-score): -0.363
Gal3S(b1-4)Glc
  glycan array binding signal (z-score): -0.34
Gal3S(b1-4)Glc6S
  glycan array binding signal (z-score): 0.61
Gal3S(b1-4)GlcNAc
  glycan array binding signal (z-score): -0.01
Gal3S(b1-4)GlcNAc6S
  glycan array binding signal (z-score): -0.351
[25]
  glycan array binding signal (z-score): 0.613
[26]
  glycan array binding signal (z-score): 1.16
Gal3S4S(b1-4)GlcNAc
  glycan array binding signal (z-score): -0.317
Gal3S6S(b1-4)GlcNAc
  glycan array binding signal (z-score): -0.799
Gal3S6S(b1-4)GlcNAc6S
  glycan array binding signal (z-score): 0.685
Gal4S(b1-4)GlcNAc
  glycan array binding signal (z-score): -0.871
Gal4S6S(b1-4)GlcNAc
  glycan array binding signal (z-score): 0.955
Gal6S(b1-4)Glc
  glycan array binding signal (z-score): 0.053
Gal6S(b1-4)Glc6S
  glycan array binding signal (z-score): -0.364
Gal6S(b1-4)GlcNAc
  glycan array binding signal (z-score): -0.017
Gal6S(b1-4)GlcNAc6S
  glycan array binding signal (z-score): 0.038
GalNAc(a1-3)Gal
  glycan array binding signal (z-score): -0.561
GalNAc(a1-3)GalNAc
  glycan array binding signal (z-score): -0.435
[27]
  glycan array binding signal (z-score): 0.26
GalNAc(b1-3)Gal
  glycan array binding signal (z-score): 0.282
[28]
  glycan array binding signal (z-score): -0.234
[29]
  glycan array binding signal (z-score): -0.94
[30]
  glycan array binding signal (z-score): -0.9
GalNAc(b1-3)GalNAc
  glycan array binding signal (z-score): 0.145
GalNAc(b1-4)GlcNAc
  glycan array binding signal (z-score): -0.735
[31]
  glycan array binding signal (z-score): 2.15
Glc(a1-4)Glc
  glycan array binding signal (z-score): -0.61
Glc(a1-6)Glc(a1-6)Glc
  glycan array binding signal (z-score): 0
Glc(b1-4)Glc
  glycan array binding signal (z-score): -0.464
Glc(b1-6)Glc
  glycan array binding signal (z-score): -0.186
GlcA(b1-3)Gal
  glycan array binding signal (z-score): -0.753
GlcA(b1-3)GlcNAc
  glycan array binding signal (z-score): -0.222
GlcA(b1-6)Gal
  glycan array binding signal (z-score): -0.571
[32]
  glycan array binding signal (z-score): -0.603
[33]
  glycan array binding signal (z-score): -0.828
